This passage reports AC50 results from PubChem BioAssay AID1487 (National Center for Advancing Translational Sciences (NCATS), 2009).

Broadly, the AC50 is the midpoint of the concentration-response curve, whichever way the signal moves.

The experiment in a line: qHTS Assay for Modulators of Lamin A Splicing. The conditions noted are these: HeLa LMNA splicing GFP/RFP minigene ratio, 48 h. The text has this:
NCGC Assay Overview: Hutchinson-Gilford Progeria Syndrome (HGPS) is a pediatric premature aging disease caused by a spontaneous mutation in the lamin A/C (LMNA) gene. The mutation activates a cryptic splice site in the LMNA pre-mRNA which results in production of a pre-lamin A protein that cannot be processed properly. The mutant protein accumulates in the nucleus and negatively affects numerous cellular functions. Correction of the splicing defect in HGPS patient cells using a targeted oligonucleotide (exo11) leads to reversal of the cellular disease phenotypes. To identify small molecule modulators of aberrant LMNA splicing, a homogenous assay was constructed in HeLa cells that used a GFP containing minigene to report on correction of aberrant splicing in lamin A and a RFP (DsRed2) to report on cell viability, uniformity and nonspecific effects on the assay signal. This assay was adapted to laser-scanning microplate cytometry (Acumen, TTP Labtech) where miniaturization of the assay to a 1,536-well plate format was possible. References: Bowen, W. P.; Wylie, P. G. Application of Laser-Scanning Fluorescence Microplate Cytometry in High Content Screening. Assay Drug Dev Technol 2006;4:209-221. Scaffidi P, Misteli T. Reversal of the cellular phenotype in the premature aging disease Hutchinson-Gilford progeria syndrome. Nat.
NCGC Assay Protocol Summary: Reagents/Controls: Stable clones expressing DsRed2 and lamin A-EGFP were generated by Cell and Molecular Technologies in S3 HeLa cells. HeLa cells were prepared for the assay when they were 70-90% confluent. The cells were counted and resuspended in Opti-MEM I (no phenol red; Gibco), 2% FBS, 1% penicillin/ streptomycin (Gibco) at concentration of 120 cells/uL concentration. The suspension was passed through a Falcon basket filter with pore size 40um (Beckton Dickson). Control titrations: column […] 1536-well plate contained a sixteen point titration (1:2 dilutions) in duplicate of ancitabine (Sigma: A8598) beginning at 40 uM final concentration. Column 2 contained a sixteen point titration (1:2 dilutions) of cycloheximide beginning at 1.4 mM final concentration. Column 3 contained ancitabine at 40 uM and column 4 contained was the vehicle control (0.5% DMSO final concentration). Assay Steps: 5 uL of HeLa cells were plated in Aurora LoBase black clear bottom (cyclic-olefin polymer) 1536-well plates at a final density of 600 cells/well. Controls and library compounds were added with a 1536-well pin array using the Kalypsys pin-tool. The plates were then incubated for 48 hrs in a cell-culture incubator (37 °C; 5% CO2, 98% humidity). Following incubation the plates were read on the Acumen Explorer using the 488 nm laser. Data was collected on objects between 10 and 100 um in size. Cell objects were defined by a 15 um width x 10 um depth filter. The ratio of the total object intensity in PMT1 (500-530 nm emission; GFP) over PMT3 (575-640 nm emission; RFP) was calculated for analysis. Keywords: NIH Roadmap, MLSCN, MLI, MLSMR, qHTS, NCGC, lamin A, Progeria, RNA splicing.
A general note: qHTS replaces the single test concentration by a dilution series.

The mark [1] stands for this setting: measured here: RFP viability control channel.
Setting [2] is: measured here: GFP splicing reporter channel.

Molecules are shown by their SMILES. The list shows a part of the results. The main result of the screen is listed elsewhere. These columns were measured beside it and carry no call. The list favours compounds with an active or inconclusive main result. Words in brackets tell the shape of the fitted curve; partial curves, single points and poor fits give uncertain potencies.

As for `CC(=O)C(Sc1nn(C)c(=S)s1)C(=O)Nc1ccccc1` (stereo not drawn), the AC50 under setting [1] was 0.0316 µM [rising, full curve, poor fit].
For `Fc1ccc(N2CCN(C3=Nc4cccc5cccc3c45)CC2)cc1`, under setting [1], the AC50 was 14.1 µM [rising, single point].
For `Cc1cc(C)n(-c2ccc3nncn3n2)n1`, the half-maximal activity concentration (AC50) under setting [1] is 3.16 µM [falling, partial curve].
In the case of `Cc1cccc(N2CCN(C(=O)CCNS(=O)(=O)c3ccc4c(c3)CCC(=O)N4)CC2)c1C`, the AC50 was 12.6 µM [rising, single point] under setting [2] and 17.8 µM [rising, single point] under setting [1].
On to `CC(C)(C)c1cc(=O)n(-c2ccccc2)[nH]1`, for which the half-maximal activity concentration (AC50) runs as follows: under setting [2], 11.2 µM [rising, partial curve, poor fit]; under setting [1], 12.6 µM [rising, partial curve, poor fit].
`CN(C)CCCn1c(N)c(C#N)c2nc(C#N)c(C#N)nc21`: the AC50 under setting [1] is 17.8 µM [rising, single point].
For the molecule `Cc1cc(Br)c(NC(=O)CCl)c(Br)c1`, under setting [2], the AC50 is 2.82 µM [falling, single point].
On to `CCOC(=O)N1CCN(C(=O)CSc2ccc3nnc(CCNC(=O)c4ccccc4)n3n2)CC1`, for which the half-maximal activity concentration (AC50) under setting [2] was 0.0708 µM [rising, full curve, poor fit].
On to `Cc1cccc(Nc2nc(N)nc(CSC(=S)N3CCOCC3)n2)c1`, for which the AC50 under setting [1] was 35.5 µM [rising, single point].
In the case of `Cc1ccc2oc(=O)c(/C=C(\O)c3ccccc3)nc2c1`, the concentration at half-maximal activity (AC50) runs as follows: under setting [2], 0.0355 µM [rising, full curve, poor fit]; under setting [1], 0.501 µM [rising, full curve].
Consider `O=C(O)c1nc(=O)[nH]c(=O)[nH]1`, for which the half-maximal activity concentration (AC50) was 0.0282 µM [falling, full curve] under setting [2] and 0.282 µM [rising, full curve, poor fit] under setting [1].
Turning to `CCOC(=O)c1nnc(-c2ccccc2)nc1Sc1ccccc1Cl`, the concentration at half-maximal activity (AC50) runs as follows: under setting [2], 35.5 µM [falling, single point]; under setting [1], 35.5 µM [falling, single point].
Regarding `COc1ccc(-c2nnc(SCC(=O)NC3CCCC3)nc2-c2ccc(OC)c(OC)c2)cc1OC`, the AC50 under setting [1] was 3.98 µM [falling, full curve].
Turning to `CCCCOc1ccc(Br)cc1CSC(=N)N`, the AC50 by setting is: under setting [2], 10 µM [rising, partial curve, poor fit]; under setting [1], 11.2 µM [rising, partial curve].
Take `COc1ccc2[nH]cc(C(=O)CN(C)CCc3ccc(OC)c(OC)c3)c2c1`: the AC50 under setting [1] was 14.1 µM [rising, partial curve, poor fit].
Regarding `O=C(NCc1ccccc1)C1CCN(S(=O)(=O)c2ccc3c(c2)CCCN3C(=O)C2CCC2)CC1`, the AC50 by setting is: under setting [2], 0.0501 µM [falling, full curve]; under setting [1], 0.0224 µM [falling, full curve, poor fit].
In the case of `COc1ccc(CN2CCN(C(=O)CC(C)C)CC2)c2ccccc12`, the AC50 under setting [1] was 17.8 µM [rising, single point].
For the molecule `O=C(NCc1ccccn1)c1cn(CCc2ccccc2)nn1`, the half-maximal activity concentration (AC50) under setting [2] is 8.91 µM [falling, partial curve, poor fit].
Same read-out and setting: next, `COc1ccc2occ(C(=O)c3ccc(N=C(C)N(C)C)cc3)c2c1`: 17.8 µM [rising, single point].
Consider `O=C(Nc1ccc(Br)cc1)C1CCN(C(=O)c2ccc(F)cc2)CC1`, for which the half-maximal activity concentration (AC50) under setting [1] is 35.5 µM [rising, single point].
Consider `COc1ccccc1OCC(=O)NCCC1=CCCCC1`, for which the AC50 under setting [1] was 0.158 µM [rising, full curve, poor fit].
For the molecule `CCCNC(=O)c1ccc2c(c1)sc1nc(-c3ccc(C)cc3)cn12`, the half-maximal activity concentration (AC50) reads like this: under setting [2], 0.562 µM [rising, full curve]; under setting [1], 0.562 µM [rising, full curve, poor fit].
Take `CCSc1nc2c(c(-c3ccc(C)o3)c1C#N)CCCC2`: under setting [1], the half-maximal activity concentration (AC50) is 31.6 µM [rising, single point].
On to `Cc1cc(C)cc(NC(=S)NCCc2c[nH]c3ccccc23)c1`, for which the AC50 under setting [2] is 35.5 µM [rising, single point].
For the molecule `O=C(CCCC(=O)NCc1ccc(F)cc1)NCc1ccc(F)cc1`, the AC50 under setting [1] is 0.794 µM [falling, full curve, poor fit].
For `COc1ccc(Cn2c(CCC(=O)Nc3ccc(CC#N)cc3)nc3cccnc32)cc1`, the AC50 was 20 µM [falling, single point] under setting [2] and 15.8 µM [falling, single point] under setting [1].
On to `CC(O)Cn1cnc2c1c(=O)n(C)c(=O)n2C` (stereo not drawn), for which the AC50 is, setting by setting: under setting [2], 2.82 µM [rising, partial curve, poor fit]; under setting [1], 2.51 µM [rising, partial curve, poor fit].
Regarding `CC1CCn2c(nc3cc(C(=O)NCc4ccccc4)ccc32)C1` (stereo not drawn), under setting [1], the AC50 was 0.562 µM [falling, full curve].
As to `O=C(CNC(=O)c1ccccc1)OCc1cc(=O)n2ccsc2n1`, the concentration at half-maximal activity (AC50) under setting [1] was 5.62 µM [falling, single point].
On to `Cc1cccc(N2CCN(C(=O)c3ccc4c(c3)N(Cc3cccc(Cl)c3)C(=O)c3ccccc3S4=O)CC2C)c1` (stereo not drawn), for which the AC50 under setting [2] was 3.98 µM [falling, full curve, poor fit].
Consider `COc1ccc(C(=O)Nc2nc3c(s2)CCCC3)cc1Cl`, for which the half-maximal activity concentration (AC50) under setting [2] is 35.5 µM [falling, single point] and the AC50 under setting [1] is 35.5 µM [falling, single point].
For the molecule `CCCn1cc(S(=O)(=O)c2ccc(CC)cc2)c(=O)c2cc(F)c(N(CC)CC)cc21`, the AC50 under setting [2] is 0.02 µM [falling, partial curve, poor fit] and the concentration at half-maximal activity (AC50) under setting [1] was 0.02 µM [falling, full curve, poor fit].
`Cc1cc(Cl)ccc1OCC(O)CN1C(C)CCCC1C` (stereo not drawn): under setting [1], the concentration at half-maximal activity (AC50) is 35.5 µM [rising, single point].
Consider `COc1ccc(N(Cc2cc3ccc(C)cc3[nH]c2=O)C(=O)c2ccco2)cc1`, for which the AC50 under setting [1] is 10 µM [rising, partial curve, poor fit].
Take `COc1ccc(-n2c(C)cc(C(=O)COC(=O)Cn3cnc4ccccc43)c2C)cc1`: the concentration at half-maximal activity (AC50) runs as follows: under setting [2], 12.6 µM [rising, single point]; under setting [1], 15.8 µM [rising, single point].
For `COc1cc(OC)c(NC(=O)C(=O)CC(=O)c2ccc(C)cc2C)cc1Cl`, the concentration at half-maximal activity (AC50) under setting [2] was 39.8 µM [rising, partial curve, poor fit].
With `Cc1[nH]c2ccccc2c1SCC(=O)N1CCC(C)CC1`, under setting [2], the concentration at half-maximal activity (AC50) was 3.98 µM [rising, partial curve, poor fit].
As for `Cc1ccc(NC(=O)CCC(=O)N2Cc3ccccc3Oc3ncccc32)cc1F`, the AC50 under setting [2] is 1.41 µM [falling, full curve, poor fit].
Consider `CC(=O)NC(=O)c1ccc(-c2ccc(Cl)cc2)o1`, for which the AC50 under setting [2] was 5.62 µM [falling, single point] and the concentration at half-maximal activity (AC50) under setting [1] was 0.794 µM [falling, partial curve].
As to `COc1cccc(C(=O)NC(c2ccccc2)C2CCCC2)c1` (stereo not drawn), the AC50 under setting [2] was 0.112 µM [rising, single point].
In the case of `Cc1nc2ccccn2c1C(=O)N=Nc1c(O)[nH]c2ccccc12`, the AC50 under setting [1] was 6.31 µM [falling, partial curve, poor fit].
Still for that read-out and setting: next, `Cc1nc(CSc2ccc(Cl)cc2)cc(N2CC(C)OC(C)C2)n1` (stereo not drawn): 0.00355 µM [falling, full curve, poor fit].
Consider `Cc1cccc2sc(NNC(=O)c3ccc(S(=O)(=O)N4CCCC(C)C4)cc3)nc12` (stereo not drawn), for which the AC50 runs as follows: under setting [2], 10 µM [rising, single point]; under setting [1], 20 µM [rising, partial curve].
`O=C(O)c1c(CNCc2cccc(F)c2)c2ccccc2n1Cc1ccccc1`: the AC50 under setting [2] was 0.0282 µM [rising, full curve, poor fit].
As to `CCOc1ccc(C(=O)Nc2cccc(C)n2)cc1`, the AC50 under setting [1] is 20 µM [rising, partial curve, poor fit].
Consider `COc1ccc(N(CC(=O)NCc2ccc(Cl)cc2)S(=O)(=O)c2ccccc2[N+](=O)[O-])c(OC)c1`, for which the concentration at half-maximal activity (AC50) under setting [2] was 3.16 µM [falling, partial curve, poor fit].
On to `COc1ccc(Nc2cc(C)nc3c(C)c(C)ccc23)cc1`, for which the concentration at half-maximal activity (AC50) under setting [2] is 2.51 µM [falling, partial curve, poor fit].
Regarding `NS(=O)(=O)c1cc2c(cc1C(F)(F)F)NCNS2(=O)=O`, the concentration at half-maximal activity (AC50) under setting [1] is 1 µM [rising, partial curve].
Turning to `CC(=O)c1c(C)[nH]c(C(=O)NCCc2ccccc2)c1C`, the concentration at half-maximal activity (AC50) under setting [1] is 35.5 µM [rising, single point].
Consider `O=C(CNc1cccc(C(F)(F)F)c1)N/N=C/c1cn(-c2ccccc2)nc1-c1ccccc1`, for which, under setting [2], the half-maximal activity concentration (AC50) is 0.562 µM [falling, full curve, poor fit].
Take `O=C(CSc1nccc(-c2cccs2)n1)Nc1ccc(F)c(Cl)c1`: the half-maximal activity concentration (AC50) under setting [1] is 35.5 µM [falling, partial curve, poor fit].
The same measure, in the same setting: next, `COCC(C)NC(=O)CCSc1nc(-c2ccc(OC)cc2)cc(C(F)(F)F)n1` (stereo not drawn): 17.8 µM [rising, partial curve, poor fit].
On to `COc1ccc(/C=N/Nc2nc(Nc3ccccc3)nc(N3CCCC3)n2)cc1`, for which the concentration at half-maximal activity (AC50) under setting [2] is 0.00316 µM [rising, full curve, poor fit] and the AC50 under setting [1] is 0.891 µM [rising, partial curve].
Consider `COc1ccccc1N1CCN(C(=O)CSc2n[nH]c(-c3ccccc3Cl)n2)CC1`, for which the concentration at half-maximal activity (AC50) under setting [1] is 17.8 µM [rising, single point].
Take `CCC1CN(C(=O)Nc2ccc(Br)cc2F)c2ccccc2S1` (stereo not drawn): the AC50 under setting [1] is 11.2 µM [rising, single point].
For `O=C(Oc1ccc(Cl)c2cccnc12)c1cccc([N+](=O)[O-])c1`, the half-maximal activity concentration (AC50) under setting [1] is 17.8 µM [rising, single point].
On to `COc1ccc(N2C(=O)/C(=C/c3ccc([N+](=O)[O-])cc3)C=C2c2ccccc2)cc1`, for which the AC50 under setting [2] was 3.16 µM [falling, single point].
